In the supplement of paper PMC12823440, “Inhibitors supercharge kinase turnover through native proteolytic circuits” (Nature, 2025):
Where a name gives a salt, the structure may show the parent alone. The list shows a part of the results. The calls rarely recur for the same compound in another form.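 Kinases were expressed as nanoluciferase fusions in K562 cells and luminescence was read every 4 h between 2 and 18 h as percent of control, DMSO set to 100% and a positive control to 0%. A time point counts as decreased when the signal drops significantly (2 sigma). The hit call is the authors' own, does not follow from the count of time points alone, and its rule is not shown.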

By UniProt entry, the sequences of proteins in these tests, tags left out. Where a name states a change or a piece, a line headed by the entry shows the natural chain unless it says otherwise.
UniProt Q06187: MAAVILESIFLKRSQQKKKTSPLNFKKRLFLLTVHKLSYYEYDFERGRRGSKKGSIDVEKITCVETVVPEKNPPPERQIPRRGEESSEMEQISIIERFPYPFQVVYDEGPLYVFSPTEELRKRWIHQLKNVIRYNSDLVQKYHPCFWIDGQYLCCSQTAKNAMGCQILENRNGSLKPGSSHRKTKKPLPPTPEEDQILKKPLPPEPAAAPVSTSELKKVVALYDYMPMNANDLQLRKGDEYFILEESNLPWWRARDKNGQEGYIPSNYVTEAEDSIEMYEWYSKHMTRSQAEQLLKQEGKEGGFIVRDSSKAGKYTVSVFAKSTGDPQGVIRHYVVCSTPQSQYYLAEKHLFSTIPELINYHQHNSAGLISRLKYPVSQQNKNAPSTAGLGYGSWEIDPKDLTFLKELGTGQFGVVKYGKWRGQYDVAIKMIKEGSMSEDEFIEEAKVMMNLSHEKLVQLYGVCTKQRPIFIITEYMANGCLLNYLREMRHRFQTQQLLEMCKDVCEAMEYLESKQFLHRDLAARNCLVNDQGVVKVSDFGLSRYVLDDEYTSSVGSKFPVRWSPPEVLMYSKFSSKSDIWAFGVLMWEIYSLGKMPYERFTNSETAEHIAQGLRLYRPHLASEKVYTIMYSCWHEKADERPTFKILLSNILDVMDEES
UniProt Q9UQM7, whole entry: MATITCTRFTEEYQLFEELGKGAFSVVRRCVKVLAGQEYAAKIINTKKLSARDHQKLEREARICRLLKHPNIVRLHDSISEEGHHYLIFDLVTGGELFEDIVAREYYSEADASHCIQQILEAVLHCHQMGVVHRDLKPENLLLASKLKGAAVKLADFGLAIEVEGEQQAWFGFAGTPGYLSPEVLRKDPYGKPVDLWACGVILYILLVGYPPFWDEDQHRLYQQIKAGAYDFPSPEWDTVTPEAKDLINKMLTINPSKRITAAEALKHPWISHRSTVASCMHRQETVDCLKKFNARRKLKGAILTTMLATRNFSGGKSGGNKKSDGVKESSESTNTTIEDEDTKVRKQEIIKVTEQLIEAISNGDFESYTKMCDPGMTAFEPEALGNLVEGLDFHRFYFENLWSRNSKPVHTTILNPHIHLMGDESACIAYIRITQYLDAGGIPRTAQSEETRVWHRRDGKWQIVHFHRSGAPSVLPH
UniProt Q13555: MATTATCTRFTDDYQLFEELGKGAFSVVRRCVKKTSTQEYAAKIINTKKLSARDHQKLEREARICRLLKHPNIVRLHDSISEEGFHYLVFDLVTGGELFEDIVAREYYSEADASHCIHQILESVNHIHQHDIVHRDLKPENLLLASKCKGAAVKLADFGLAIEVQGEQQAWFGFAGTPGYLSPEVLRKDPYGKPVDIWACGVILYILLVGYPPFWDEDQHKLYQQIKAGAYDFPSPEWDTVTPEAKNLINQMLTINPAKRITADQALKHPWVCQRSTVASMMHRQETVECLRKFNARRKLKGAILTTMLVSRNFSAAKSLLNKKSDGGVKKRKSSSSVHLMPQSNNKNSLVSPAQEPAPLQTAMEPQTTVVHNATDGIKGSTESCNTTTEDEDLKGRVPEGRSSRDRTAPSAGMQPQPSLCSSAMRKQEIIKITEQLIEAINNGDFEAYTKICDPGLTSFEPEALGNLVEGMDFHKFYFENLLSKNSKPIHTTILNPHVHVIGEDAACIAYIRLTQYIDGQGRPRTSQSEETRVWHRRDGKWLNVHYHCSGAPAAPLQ
UniProt Q00526: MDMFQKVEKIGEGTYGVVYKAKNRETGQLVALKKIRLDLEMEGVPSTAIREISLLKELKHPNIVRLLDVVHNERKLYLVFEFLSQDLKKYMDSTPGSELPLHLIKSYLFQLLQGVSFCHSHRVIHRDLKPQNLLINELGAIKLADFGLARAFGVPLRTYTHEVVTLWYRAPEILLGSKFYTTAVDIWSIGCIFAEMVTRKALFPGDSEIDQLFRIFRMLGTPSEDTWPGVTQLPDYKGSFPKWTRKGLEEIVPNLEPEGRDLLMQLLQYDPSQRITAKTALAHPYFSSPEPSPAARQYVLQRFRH
UniProt P11802: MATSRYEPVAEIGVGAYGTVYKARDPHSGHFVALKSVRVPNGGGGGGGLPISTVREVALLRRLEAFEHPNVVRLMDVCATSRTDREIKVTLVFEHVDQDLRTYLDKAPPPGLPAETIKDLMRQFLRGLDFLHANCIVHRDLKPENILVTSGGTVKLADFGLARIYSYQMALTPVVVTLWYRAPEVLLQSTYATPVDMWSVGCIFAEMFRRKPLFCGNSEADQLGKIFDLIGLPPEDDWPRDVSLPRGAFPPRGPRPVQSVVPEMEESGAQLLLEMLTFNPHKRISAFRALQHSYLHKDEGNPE
UniProt Q00535, whole entry, looked up: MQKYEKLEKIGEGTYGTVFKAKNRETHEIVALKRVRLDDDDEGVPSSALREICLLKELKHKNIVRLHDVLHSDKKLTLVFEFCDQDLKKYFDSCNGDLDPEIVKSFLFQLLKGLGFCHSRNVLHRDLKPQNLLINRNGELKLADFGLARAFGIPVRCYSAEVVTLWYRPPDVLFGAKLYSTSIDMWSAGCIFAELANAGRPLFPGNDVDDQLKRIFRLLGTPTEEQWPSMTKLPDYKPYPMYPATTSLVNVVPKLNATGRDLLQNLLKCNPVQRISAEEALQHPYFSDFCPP
UniProt Q00534, whole entry: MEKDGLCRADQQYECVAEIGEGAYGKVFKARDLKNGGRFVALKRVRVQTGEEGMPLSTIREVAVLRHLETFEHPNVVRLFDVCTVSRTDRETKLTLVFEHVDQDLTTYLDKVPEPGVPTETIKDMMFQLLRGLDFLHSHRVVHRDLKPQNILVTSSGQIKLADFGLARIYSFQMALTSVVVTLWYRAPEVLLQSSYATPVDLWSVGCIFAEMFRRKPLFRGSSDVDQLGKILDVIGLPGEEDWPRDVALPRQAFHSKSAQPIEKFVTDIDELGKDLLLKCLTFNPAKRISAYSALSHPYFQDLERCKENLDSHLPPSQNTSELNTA
UniProt P50613: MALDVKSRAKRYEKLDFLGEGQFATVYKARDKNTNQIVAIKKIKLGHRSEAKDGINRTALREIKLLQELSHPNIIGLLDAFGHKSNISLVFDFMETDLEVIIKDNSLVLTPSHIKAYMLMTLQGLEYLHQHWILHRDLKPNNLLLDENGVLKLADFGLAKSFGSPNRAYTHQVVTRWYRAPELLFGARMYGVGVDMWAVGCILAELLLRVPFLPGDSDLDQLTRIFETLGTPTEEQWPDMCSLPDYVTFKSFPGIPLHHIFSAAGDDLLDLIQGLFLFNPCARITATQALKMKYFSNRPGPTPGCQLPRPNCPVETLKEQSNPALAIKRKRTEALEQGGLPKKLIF
UniProt P50750, whole entry: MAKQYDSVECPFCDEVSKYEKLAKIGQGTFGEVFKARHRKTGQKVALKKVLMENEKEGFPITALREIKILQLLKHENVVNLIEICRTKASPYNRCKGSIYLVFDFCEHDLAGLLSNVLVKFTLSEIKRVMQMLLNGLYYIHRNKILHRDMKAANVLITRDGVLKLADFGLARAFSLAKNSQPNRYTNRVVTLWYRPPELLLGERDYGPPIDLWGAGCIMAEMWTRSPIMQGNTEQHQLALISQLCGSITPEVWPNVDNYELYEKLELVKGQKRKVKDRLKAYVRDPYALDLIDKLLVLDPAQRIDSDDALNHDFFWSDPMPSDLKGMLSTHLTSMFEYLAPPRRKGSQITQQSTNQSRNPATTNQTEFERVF
UniProt O96017, whole entry: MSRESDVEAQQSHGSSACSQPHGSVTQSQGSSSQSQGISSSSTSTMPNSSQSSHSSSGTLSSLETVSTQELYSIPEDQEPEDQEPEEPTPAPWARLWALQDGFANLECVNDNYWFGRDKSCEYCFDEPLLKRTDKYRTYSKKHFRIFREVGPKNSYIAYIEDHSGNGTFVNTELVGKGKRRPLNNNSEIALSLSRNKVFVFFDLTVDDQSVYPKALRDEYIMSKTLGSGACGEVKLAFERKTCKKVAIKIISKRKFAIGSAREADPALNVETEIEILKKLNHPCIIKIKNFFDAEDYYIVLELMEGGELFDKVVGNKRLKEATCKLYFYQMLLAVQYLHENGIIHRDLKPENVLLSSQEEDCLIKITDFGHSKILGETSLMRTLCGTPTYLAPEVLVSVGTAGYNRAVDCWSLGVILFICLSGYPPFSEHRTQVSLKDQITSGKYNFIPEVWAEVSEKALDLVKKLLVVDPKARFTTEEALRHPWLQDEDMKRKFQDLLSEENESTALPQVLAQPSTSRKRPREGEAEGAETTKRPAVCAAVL
UniProt P07333, whole entry: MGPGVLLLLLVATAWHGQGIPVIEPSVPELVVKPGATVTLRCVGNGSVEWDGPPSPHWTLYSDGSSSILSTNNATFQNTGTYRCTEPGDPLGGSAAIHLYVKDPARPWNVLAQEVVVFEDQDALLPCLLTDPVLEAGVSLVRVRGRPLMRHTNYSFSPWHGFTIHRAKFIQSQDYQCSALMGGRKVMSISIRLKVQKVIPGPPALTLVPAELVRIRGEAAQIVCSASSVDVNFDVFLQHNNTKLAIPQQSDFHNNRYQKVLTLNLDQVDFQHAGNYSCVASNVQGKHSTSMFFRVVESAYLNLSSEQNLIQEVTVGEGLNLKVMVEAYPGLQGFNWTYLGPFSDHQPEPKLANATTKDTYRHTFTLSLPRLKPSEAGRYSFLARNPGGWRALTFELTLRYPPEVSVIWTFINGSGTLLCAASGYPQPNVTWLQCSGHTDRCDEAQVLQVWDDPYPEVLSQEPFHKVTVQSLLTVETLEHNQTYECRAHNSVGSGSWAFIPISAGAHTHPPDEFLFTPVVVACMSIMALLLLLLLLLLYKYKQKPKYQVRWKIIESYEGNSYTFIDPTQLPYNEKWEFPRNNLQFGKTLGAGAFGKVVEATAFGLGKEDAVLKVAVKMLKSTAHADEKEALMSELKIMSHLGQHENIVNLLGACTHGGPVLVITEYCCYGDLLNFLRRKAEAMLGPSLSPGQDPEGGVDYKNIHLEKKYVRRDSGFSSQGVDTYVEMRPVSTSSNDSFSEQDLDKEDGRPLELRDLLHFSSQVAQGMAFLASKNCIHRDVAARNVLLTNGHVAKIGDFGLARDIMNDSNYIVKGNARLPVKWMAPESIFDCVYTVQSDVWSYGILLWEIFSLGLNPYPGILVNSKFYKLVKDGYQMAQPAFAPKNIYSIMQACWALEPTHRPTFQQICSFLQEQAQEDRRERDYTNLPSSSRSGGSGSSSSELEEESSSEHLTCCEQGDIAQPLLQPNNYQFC
UniProt P48729: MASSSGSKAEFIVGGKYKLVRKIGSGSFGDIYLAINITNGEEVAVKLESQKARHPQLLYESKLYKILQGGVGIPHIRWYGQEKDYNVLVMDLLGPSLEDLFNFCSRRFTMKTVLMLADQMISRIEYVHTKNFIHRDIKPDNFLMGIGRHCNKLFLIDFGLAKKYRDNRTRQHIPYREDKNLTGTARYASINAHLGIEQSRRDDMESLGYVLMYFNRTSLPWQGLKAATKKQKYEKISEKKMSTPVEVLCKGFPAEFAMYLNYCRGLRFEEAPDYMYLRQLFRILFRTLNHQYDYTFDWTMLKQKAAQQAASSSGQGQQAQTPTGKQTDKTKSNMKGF
UniProt P48730: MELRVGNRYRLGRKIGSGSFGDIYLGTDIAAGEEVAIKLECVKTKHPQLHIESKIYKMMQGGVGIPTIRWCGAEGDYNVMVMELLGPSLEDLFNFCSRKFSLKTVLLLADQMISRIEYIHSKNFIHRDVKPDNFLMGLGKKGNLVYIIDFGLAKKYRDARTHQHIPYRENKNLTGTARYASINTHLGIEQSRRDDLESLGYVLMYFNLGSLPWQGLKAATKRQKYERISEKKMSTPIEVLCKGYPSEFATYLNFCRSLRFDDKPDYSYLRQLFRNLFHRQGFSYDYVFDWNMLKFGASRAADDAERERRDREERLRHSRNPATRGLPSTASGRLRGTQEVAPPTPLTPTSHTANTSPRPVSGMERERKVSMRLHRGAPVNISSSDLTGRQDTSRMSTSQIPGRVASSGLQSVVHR
UniProt Q9Y463, whole entry, looked up: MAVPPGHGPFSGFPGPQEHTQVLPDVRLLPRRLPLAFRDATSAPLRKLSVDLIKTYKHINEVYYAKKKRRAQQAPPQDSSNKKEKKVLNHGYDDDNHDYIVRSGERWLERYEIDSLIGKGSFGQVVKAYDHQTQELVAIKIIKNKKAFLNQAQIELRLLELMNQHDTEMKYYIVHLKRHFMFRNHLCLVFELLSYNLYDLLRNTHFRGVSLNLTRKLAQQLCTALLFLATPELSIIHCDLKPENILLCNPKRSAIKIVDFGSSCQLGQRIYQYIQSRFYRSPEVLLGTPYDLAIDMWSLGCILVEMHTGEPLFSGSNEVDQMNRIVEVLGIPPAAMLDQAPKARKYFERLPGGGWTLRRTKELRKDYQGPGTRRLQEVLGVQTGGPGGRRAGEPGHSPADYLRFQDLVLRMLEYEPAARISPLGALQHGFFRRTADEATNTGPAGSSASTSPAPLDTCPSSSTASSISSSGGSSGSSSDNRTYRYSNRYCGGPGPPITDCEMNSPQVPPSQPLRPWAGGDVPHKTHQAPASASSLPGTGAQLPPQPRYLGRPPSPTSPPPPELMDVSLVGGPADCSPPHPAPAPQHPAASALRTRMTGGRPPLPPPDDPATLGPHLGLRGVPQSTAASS

Key:
Experiment in all cases: kinase-Nluc reporter destabilization hit call (1 = scored as downregulated) (binary); higher = compound decreases kinase abundance
Settings in all cases: K562; 2-18 h
[1] = system: BRAF_V600E
[2] = target: BTK (UniProt Q06187)
[3] = target: CAMK2A (UniProt Q9UQM7)
[4] = target: CAMK2G (UniProt Q13555)
[5] = target: CDK10 (UniProt Q15131)
[6] = target: CDK2 (UniProt P24941)
[7] = target: CDK3 (UniProt Q00526)
[8] = target: CDK4 (UniProt P11802)
[9] = target: CDK5 (UniProt Q00535)
[10] = target: CDK6 (UniProt Q00534)
[11] = target: CDK7 (UniProt P50613)
[12] = target: CDK9 (UniProt P50750)
[13] = target: CHEK2 (UniProt O96017)
[14] = target: CSF1R (UniProt P07333)
[15] = target: CSK (UniProt P41240)
[16] = target: CSNK1A1 (UniProt P48729)
[17] = target: CSNK1D (UniProt P48730)
[18] = target: DDR1 (UniProt Q08345)
[19] = target: DYRK1B (UniProt Q9Y463)
[20] = target: DYRK2 (UniProt Q92630)

Measured: kinase-Nluc reporter destabilization hit call

Cc1cc(Nc2cc(N3CCN(C)CC3)nc(Nc3ccc([N+](=O)[O-])cc3)n2)n[nH]1 (2.5 µM)
inactive: [1] 0 | [2] 0 | [3] 0 | [4] 0 | [5] 0 | [6] 0 | [7] 0 | [8] 0 | [9] 0 | [10] 0 | [11] 0 | [12] 0 | [13] 0 | [14] 0 | [15] 0 | [16] 0 | [17] 0 | [18] 0 | [19] 0 | [20] 0

CC1CN(CC2CCN(Cc3ccccc3)CC2)C(=O)N(c2cccc(C(=N)N)c2)C1 (stereo not given) (10 µM)
inactive: [1] 0 | [2] 0 | [3] 0 | [4] 0 | [5] 0 | [6] 0 | [7] 0 | [8] 0 | [9] 0 | [10] 0 | [11] 0 | [12] 0 | [13] 0 | [14] 0 | [15] 0 | [16] 0 | [17] 0 | [18] 0 | [19] 0 | [20] 0

CC(C)n1ncnc1-c1cn2c(n1)-c1ccc(O[C@@H](C)C(N)=O)cc1OCC2 (10 µM)
inactive: [1] 0 | [2] 0 | [3] 0 | [4] 0 | [5] 0 | [6] 0 | [7] 0 | [8] 0 | [9] 0 | [10] 0 | [11] 0 | [12] 0 | [13] 0 | [14] 0 | [15] 0 | [16] 0 | [17] 0 | [18] 0 | [19] 0 | [20] 0

Cc1cc(C)cc(NC(N)=Nc2ccccc2C(F)(F)F)c1 (10 µM)
inactive: [1] 0 | [2] 0 | [3] 0 | [4] 0 | [5] 0 | [6] 0 | [7] 0 | [8] 0 | [9] 0 | [10] 0 | [11] 0 | [12] 0 | [13] 0 | [14] 0 | [15] 0 | [16] 0 | [17] 0 | [18] 0 | [19] 0 | [20] 0

O=c1cc(-c2ccccc2)oc2cc(O[C@@H]3O[C@H](CO[C@@H]4O[C@H](CO)[C@@H](O)[C@H](O)[C@H]4O)[C@@H](O)[C@H](O)[C@H]3O)c(O)c(O)c12 [Oroxin B] (10 µM)
inactive: [1] 0 | [2] 0 | [3] 0 | [4] 0 | [5] 0 | [6] 0 | [7] 0 | [8] 0 | [9] 0 | [10] 0 | [11] 0 | [12] 0 | [13] 0 | [14] 0 | [15] 0 | [16] 0 | [17] 0 | [18] 0 | [19] 0 | [20] 0

O=C(ON=C1c2ccccc2-c2nc3ccccc3nc21)c1ccco1 (2.5 µM)
inactive: [1] 0 | [2] 0 | [3] 0 | [4] 0 | [5] 0 | [6] 0 | [7] 0 | [8] 0 | [9] 0 | [10] 0 | [11] 0 | [12] 0 | [13] 0 | [14] 0 | [15] 0 | [16] 0 | [17] 0 | [18] 0 | [19] 0 | [20] 0

CCCn1/c(=N/C(=O)c2cccc(C(N)=O)c2)[nH]c2ccccc21 [Takinib] (10 µM)
inactive: [1] 0 | [2] 0 | [3] 0 | [4] 0 | [5] 0 | [6] 0 | [7] 0 | [8] 0 | [9] 0 | [10] 0 | [11] 0 | [12] 0 | [13] 0 | [14] 0 | [15] 0 | [16] 0 | [17] 0 | [18] 0 | [19] 0 | [20] 0

O=C(O)c1cc(N(Cc2ccccc2O)Cc2cc(O)ccc2O)ccc1O [Lavendustin A] (10 µM)
inactive: [1] 0 | [2] 0 | [3] 0 | [4] 0 | [5] 0 | [6] 0 | [7] 0 | [8] 0 | [9] 0 | [10] 0 | [11] 0 | [12] 0 | [13] 0 | [14] 0 | [15] 0 | [16] 0 | [17] 0 | [18] 0 | [19] 0 | [20] 0

O=C(O)[C@H]1O[C@@H](Oc2cc3oc(-c4ccc(O)cc4)cc(=O)c3c(O)c2O)[C@H](O)[C@@H](O)[C@@H]1O [Scutellarin] (10 µM)
inactive: [1] 0 | [2] 0 | [3] 0 | [4] 0 | [5] 0 | [6] 0 | [7] 0 | [8] 0 | [9] 0 | [10] 0 | [11] 0 | [12] 0 | [13] 0 | [14] 0 | [15] 0 | [16] 0 | [17] 0 | [18] 0 | [19] 0 | [20] 0

NC1(C(=O)NCCCn2cc(-c3ccc(OC(F)(F)F)cc3)c3cc(CN4CCN(Cc5c(Cl)cccc5Cl)CC4)ccc32)CCNCC1 (2.5 µM)
inactive: [1] 0 | [2] 0 | [3] 0 | [4] 0 | [5] 0 | [6] 0 | [7] 0 | [8] 0 | [9] 0 | [10] 0 | [11] 0 | [12] 0 | [13] 0 | [14] 0 | [15] 0 | [16] 0 | [17] 0 | [18] 0 | [19] 0 | [20] 0

O=C1NC(=O)/C(=C\c2c[nH]c(=O)c(-c3ccc(N4CCNCC4)nc3)c2)S1 [Protein kinase inhibitors 1 hydrochloride] (10 µM)
inactive: [1] 0 | [2] 0 | [3] 0 | [4] 0 | [5] 0 | [6] 0 | [7] 0 | [8] 0 | [9] 0 | [10] 0 | [11] 0 | [12] 0 | [13] 0 | [14] 0 | [15] 0 | [16] 0 | [17] 0 | [18] 0 | [19] 0 | [20] 0

NC[C@@](O)(c1ccc(Cl)cc1)c1ccc(-c2cn[nH]c2)cc1 (10 µM)
inactive: [1] 0 | [2] 0 | [3] 0 | [4] 0 | [5] 0 | [6] 0 | [7] 0 | [8] 0 | [9] 0 | [10] 0 | [11] 0 | [12] 0 | [13] 0 | [14] 0 | [15] 0 | [16] 0 | [17] 0 | [19] 0 | [20] 0
active: [18] 1

N[C@@H]1CCCN(c2c(/C=C3\SC(=O)NC3=O)cccc2-c2ccccc2)C1 (10 µM)
inactive: [1] 0 | [2] 0 | [3] 0 | [4] 0 | [5] 0 | [6] 0 | [7] 0 | [8] 0 | [9] 0 | [10] 0 | [11] 0 | [12] 0 | [13] 0 | [14] 0 | [15] 0 | [16] 0 | [17] 0 | [18] 0 | [19] 0 | [20] 0

Nc1nccc(-c2c(-c3ccc(F)cc3)ncn2C2CCCCC2)n1 (10 µM)
inactive: [1] 0 | [2] 0 | [3] 0 | [4] 0 | [5] 0 | [6] 0 | [7] 0 | [8] 0 | [9] 0 | [10] 0 | [11] 0 | [12] 0 | [13] 0 | [14] 0 | [15] 0 | [16] 0 | [17] 0 | [18] 0 | [19] 0 | [20] 0

c1ccc(Cn2c(-c3ccc(OC[C@H](C4CCNCC4)n4c(-c5ccccc5)nc5ccccc54)cc3)nc3ccccc32)cc1 [Deltarasin] (2.5 µM)
inactive: [1] 0 | [2] 0 | [3] 0 | [4] 0 | [5] 0 | [6] 0 | [7] 0 | [8] 0 | [9] 0 | [10] 0 | [11] 0 | [12] 0 | [13] 0 | [14] 0 | [15] 0 | [16] 0 | [17] 0 | [18] 0 | [19] 0 | [20] 0

Sorted by SMILES length (largest number first): some entries from above.
O=C1NC(=O)/C(=C\c2c[nH]c(=O)c(-c3ccc(N4CCNCC4)nc3)c2)S1 [Protein kinase inhibitors 1 hydrochloride] (10 µM)
inactive: [1] 0 | [2] 0 | [3] 0 | [4] 0 | [5] 0 | [6] 0 | [7] 0 | [8] 0 | [9] 0 | [10] 0 | [11] 0 | [12] 0 | [13] 0 | [14] 0 | [15] 0 | [16] 0 | [17] 0 | [18] 0 | [19] 0 | [20] 0

CC1CN(CC2CCN(Cc3ccccc3)CC2)C(=O)N(c2cccc(C(=N)N)c2)C1 (stereo not given) (10 µM)
inactive: [1] 0 | [2] 0 | [3] 0 | [4] 0 | [5] 0 | [6] 0 | [7] 0 | [8] 0 | [9] 0 | [10] 0 | [11] 0 | [12] 0 | [13] 0 | [14] 0 | [15] 0 | [16] 0 | [17] 0 | [18] 0 | [19] 0 | [20] 0

CCCn1/c(=N/C(=O)c2cccc(C(N)=O)c2)[nH]c2ccccc21 [Takinib] (10 µM)
inactive: [1] 0 | [2] 0 | [3] 0 | [4] 0 | [5] 0 | [6] 0 | [7] 0 | [8] 0 | [9] 0 | [10] 0 | [11] 0 | [12] 0 | [13] 0 | [14] 0 | [15] 0 | [16] 0 | [17] 0 | [18] 0 | [19] 0 | [20] 0

NC[C@@](O)(c1ccc(Cl)cc1)c1ccc(-c2cn[nH]c2)cc1 (10 µM)
inactive: [1] 0 | [2] 0 | [3] 0 | [4] 0 | [5] 0 | [6] 0 | [7] 0 | [8] 0 | [9] 0 | [10] 0 | [11] 0 | [12] 0 | [13] 0 | [14] 0 | [15] 0 | [16] 0 | [17] 0 | [19] 0 | [20] 0
active: [18] 1

Going on with the list:

Nc1nc(N)c2nc(-c3cccc(O)c3)c(-c3cccc(O)c3)nc2n1 (10 µM)
inactive: [1] 0 | [2] 0 | [3] 0 | [4] 0 | [5] 0 | [6] 0 | [7] 0 | [8] 0 | [9] 0 | [10] 0 | [11] 0 | [12] 0 | [13] 0 | [14] 0 | [15] 0 | [16] 0 | [17] 0 | [18] 0 | [19] 0 | [20] 0
